One assay concerns the target FLAG-VHL (human) (UniProt P40337). Kind of assay: co-IP; cells infected with indicated plasmids; lysates immunoprecipitated with anti-FLAG affinity gel, western blot; with or without depletion of PIN1 or ATRA.
The next assay has as its target pVHL S80A (human) (UniProt P40337). Description: co-IP; cells transfected with indicated plasmids; lysates (NETN buffer) precipitated with S-protein agarose, western blot; some with CDK1 shRNA or RO-3306 for 24 h.
Assay [1] deals with pVHL WT (precipitated with S-protein agarose) (human) (UniProt P40337). The assay is described as above.

Protein sequences, listed by entry. Tags and fused reporters are not part of them. Lines headed by an entry give the natural chain unless they say otherwise; changes in a name come on top.
UniProt P40337: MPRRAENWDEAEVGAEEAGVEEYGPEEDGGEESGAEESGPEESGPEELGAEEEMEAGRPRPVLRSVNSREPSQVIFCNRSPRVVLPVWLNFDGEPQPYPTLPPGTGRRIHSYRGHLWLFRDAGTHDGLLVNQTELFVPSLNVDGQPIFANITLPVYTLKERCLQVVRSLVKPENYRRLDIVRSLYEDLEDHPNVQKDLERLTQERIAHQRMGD

No constants are given. Whether binding was seen depends on the method and setting. Binding seen in cells or lysates may run through a third protein. Some entries that bind do so weakly or less than the wild type.

Results on 1 molecule are retold here after article PMC10070344.

B1: WD repeat and SOCS box-containing protein 1 (enzyme, UniProt Q9Y6I7 1-421)
chain: MASFPPRVNEKEIVRLRTIGELLAPAAPFDKKCGRENWTVAFAPDGSYFAWSQGHRTVKLVPWSQCLQNFLLHGTKNVTNSSSLRLPRQNSDGGQKNKPREHIIDCGDIVWSLAFGSSVPEKQSRCVNIEWHRFRFGQDQLLLATGLNNGRIKIWDVYTGKLLLNLVDHTEVVRDLTFAPDGSLILVSASRDKTLRVWDLKDDGNMMKVLRGHQNWVYSCAFSPDSSMLCSVGASKAVFLWNMDKYTMIRKLEGHHHDVVACDFSPDGALLATASYDTRVYIWDPHNGDILMEFGHLFPPPTPIFAGGANDRWVRSVSFSHDGLHVASLADDKMVRFWRIDEDYPVQVAPLSNGLCCAFSTDGSVLAAGTHDGSVYFWATPRQVPSLQHLCRMSIRRVMPTQEVQELPIPSKLLEFLSYRI
For B1, the binding entry is listed as “binds” with FLAG-VHL (human), “no binding” with pVHL S80A (human) and “binds” in assay [1].
